Experimental data: PMC11852049, “Impact of Hydrophobic, Hydrophilic, and Mucus-Binding Motifs on the Therapeutic Potential of Ceftazidime Analogs for Pulmonary Administration” (Antibiotics, 2025)

Test system: human bronchial epithelial cells (HBECs)
Experiment: Transepithelial electrical resistance (TEER) of HBEC cultures at 24 h
[1] = compound set 2, lung donor KC29, at 24 h
[2] = compound set 2, lung donor L2, at 24 h
[3] = compound set 2, lung donor L8 (donor excluded from Papp analysis), at 24 h
[4] = compound set 2, lung donor L224, at 24 h
[5] = compound set 1, lung donor N715, at 24 h
[6] = compound set 1, lung donor N716, at 24 h
[7] = compound set 1, lung donor N720, at 24 h

Structure (SMILES)	TEER [1]	TEER [2]	TEER [3]	TEER [4]	TEER [5]	TEER [6]	TEER [7]
CC(C)(O/N=C(/C(=O)N[C@@H]1C(=O)N2C(C(=O)[O-])=C(C[n+]3ccccc3)CS[C@H]12)c1csc(N)n1)C(=O)NCCCS(=O)(=O)c1ccc(B(O)O)cc1 [Compound 17]	857 Ωcm^2	1019 Ωcm^2	486 Ωcm^2	502 Ωcm^2			
CC(C)(O/N=C(/C(=O)N[C@@H]1C(=O)N2C(C(=O)[O-])=C(C[n+]3ccccc3)CS[C@H]12)c1csc(N)n1)C(=O)NCCCS(=O)(=O)c1ccccc1 [Compound 5]	804 Ωcm^2	1070 Ωcm^2	337 Ωcm^2	614 Ωcm^2			
CCCCNC(=O)C(C)(C)O/N=C(/C(=O)N[C@@H]1C(=O)N2C(C(=O)[O-])=C(C[n+]3ccccc3)CS[C@H]12)c1csc(N)n1 [Compound 1, n-butyl-ceftazidime]					690 Ωcm^2	760 Ωcm^2	670 Ωcm^2
CC(C)(O/N=C(/C(=O)N[C@@H]1C(=O)N2C(C(=O)[O-])=C(C[n+]3ccccc3)CS[C@H]12)c1csc(N)n1)C(=O)NCCCSc1ccc(B(O)O)cc1 [Compound 16, 4-propylthiophenyl boronic acid-ceftazidime]	775 Ωcm^2	933 Ωcm^2	410 Ωcm^2	691 Ωcm^2			
CN1CCN(CCNC(=O)C(C)(C)O/N=C(/C(=O)N[C@@H]2C(=O)N3C(C(=O)[O-])=C(C[n+]4ccccc4)CS[C@H]23)c2csc(N)n2)CC1 [Compound 12]	1002 Ωcm^2	1194 Ωcm^2	495 Ωcm^2	585 Ωcm^2			
CC(C)(O/N=C(/C(=O)N[C@@H]1C(=O)N2C(C(=O)[O-])=C(C[n+]3ccccc3)CS[C@H]12)c1csc(N)n1)C(=O)NC(CCC(=O)O)C(=O)O (stereo partly shown) [Compound 13]	672 Ωcm^2	818 Ωcm^2	245 Ωcm^2	864 Ωcm^2			
COCCOCCOCCOCCOCCNC(=O)C(C)(C)O/N=C(/C(=O)N[C@@H]1C(=O)N2C(C(=O)[O-])=C(C[n+]3ccccc3)CS[C@H]12)c1csc(N)n1 [Compound 8]					840 Ωcm^2	630 Ωcm^2	880 Ωcm^2
CC(C)(O/N=C(/C(=O)N[C@@H]1C(=O)N2C(C(=O)[O-])=C(C[n+]3ccccc3)CS[C@H]12)c1csc(N)n1)C(=O)NCCc1ccccc1 [Compound 3]	1000 Ωcm^2	1033 Ωcm^2	379 Ωcm^2	657 Ωcm^2			
CC(C)(O/N=C(/C(=O)N[C@@H]1C(=O)N2C(C(=O)[O-])=C(C[n+]3ccccc3)CS[C@H]12)c1csc(N)n1)C(=O)NCCCCCCOCCCCc1ccccc1 [Compound 6]	464 Ωcm^2	676 Ωcm^2	372 Ωcm^2	448 Ωcm^2			
CC(C)(O/N=C(/C(=O)N[C@@H]1C(=O)N2C(C(=O)[O-])=C(C[n+]3ccccc3)CS[C@H]12)c1csc(N)n1)C(=O)NCCOCCOCCOCCOCCOCCNc1ccnc(N)n1 [Compound 15, PEG5-pyrimidin-2-amine-ceftazidime]					870 Ωcm^2	720 Ωcm^2	930 Ωcm^2
CCN(CC)CCNC(=O)C(C)(C)O/N=C(/C(=O)N[C@@H]1C(=O)N2C(C(=O)[O-])=C(C[n+]3ccccc3)CS[C@H]12)c1csc(N)n1 [Compound 11]					950 Ωcm^2	630 Ωcm^2	940 Ωcm^2
COCCOCCOCCNC(=O)C(C)(C)O/N=C(/C(=O)N[C@@H]1C(=O)N2C(C(=O)[O-])=C(C[n+]3ccccc3)CS[C@H]12)c1csc(N)n1 [Compound 7]	1197 Ωcm^2	950 Ωcm^2	306 Ωcm^2	578 Ωcm^2			
CC(C)(O/N=C(\C(=O)N[C@@H]1C(=O)N2C(C(=O)[O-])=C(C[n+]3ccccc3)CS[C@H]12)c1csc(N)n1)C(=O)O [Ceftazidime pentahydrate, ceftazidime pentahydrate, reference compound]	812 Ωcm^2	1008 Ωcm^2	318 Ωcm^2	477 Ωcm^2	740 Ωcm^2	590 Ωcm^2	760 Ωcm^2
CC(C)(O/N=C(/C(=O)N[C@@H]1C(=O)N2C(C(=O)[O-])=C(C[n+]3ccccc3)CS[C@H]12)c1csc(N)n1)C(=O)NCCNc1ccnc(N)n1 [Compound 14]	734 Ωcm^2	1076 Ωcm^2	429 Ωcm^2	451 Ωcm^2			
CC(C)(O/N=C(/C(=O)N[C@@H]1C(=O)N2C(C(=O)[O-])=C(C[n+]3ccccc3)CS[C@H]12)c1csc(N)n1)C(=O)NC1C(O)O[C@H](CO)[C@@H](O)[C@@H]1O (stereo partly shown) [Compound 10]	858 Ωcm^2	919 Ωcm^2	313 Ωcm^2	388 Ωcm^2			
CC(C)(O/N=C(/C(=O)N[C@@H]1C(=O)N2C(C(=O)[O-])=C(C[n+]3ccccc3)CS[C@H]12)c1csc(N)n1)C(=O)NCCc1cc(O)c(O)cc1Cl [Compound 4]	674 Ωcm^2	935 Ωcm^2	403 Ωcm^2	479 Ωcm^2			
CC(C)(O/N=C(/C(=O)N[C@@H]1C(=O)N2C(C(=O)[O-])=C(C[n+]3ccccc3)CS[C@H]12)c1csc(N)n1)C(=O)NCCNC(=O)c1ccc(B(O)O)cc1 [Compound 18]	795 Ωcm^2	1019 Ωcm^2	255 Ωcm^2	421 Ωcm^2			
COCCOCCOCCOCCOCCOCCOCCOCCNC(=O)C(C)(C)O/N=C(/C(=O)N[C@@H]1C(=O)N2C(C(=O)[O-])=C(C[n+]3ccccc3)CS[C@H]12)c1csc(N)n1 [Compound 9]					950 Ωcm^2	700 Ωcm^2	950 Ωcm^2
